Measurements published in PubChem BioAssay AID493014 (National Center for Advancing Translational Sciences (NCATS), 2011).
The list shows a part of the results. Shown are side measurements of this screen, not its main read-out; they come without a call. Compounds called inactive in the main read-out are mostly missing here. Potencies come from curve fits of mixed quality, noted in brackets.

Assay: qHTS Assay to Find Inhibitors of Chronic Active B-Cell Receptor Signaling
Conditions: ABC-DLBCL IkBa-CBG/CBR reporter, luminescence ratio (green luciferase fused to IkBa over red control in TMD8 lymphoma cells), 4 h
In short: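 Doxycycline induced both beetle luciferases in TMD8 lymphoma cells; IKK-driven degradation limits the IkappaBalpha-fused green signal, while red luminescence normalises for cell number and nonspecific effects. Compounds tested up to 46 uM, 4 hrs.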

[1] = measured here: CBR red luminescence, cell number
[2] = measured here: IkBa-CBG green luminescence

| SMILES | AC50 [1] | AC50 [2] |
| --- | --- | --- |
| Cc1ccccc1S(=O)(=O)Cc1ccc(C(=O)NCCN2CCCCC2C)o1 (stereo unspecified) | 9.2 µM [falling, partial curve] | – |
| CCCCCCC(=O)N(O)C1CC(=O)N(c2ccc(F)cc2)C1=O (stereo unspecified) | 0.282 µM [falling, full curve, poor fit] | – |
| CC(/C=C1\SC(=S)N(CC(=O)N2CCN(c3ccccc3)CC2)C1=O)=C\c1ccccc1 | 0.92 µM [rising, full curve, poor fit] | – |
| O=C(CCCCn1c(=O)c2ccccc2n(Cc2ccc(Cl)cc2)c1=O)NCc1ccco1 | 4.11 µM [falling, single point] | – |
| Cn1c2c(c(=O)n(C)c1=O)C(C(F)(F)F)(C(F)(F)F)N=C(c1ccc(Cl)cc1)N2 | 3.16 µM [falling, single point] | – |
| O=C(/C(=N/N=C/c1ccc(O)c(O)c1)c1ccccc1)c1ccccc1 | 10.3 µM [falling, partial curve] | – |
| Cc1cccc(NC(=O)c2cc(NC(=O)c3ccccc3)ccc2N2CCCCC2)c1 | 0.082 µM [falling, full curve, poor fit] | – |
| CCOC(=O)C1=CN(Cc2cccc(-c3cccnc3)c2)S(=O)(=O)N(C)C1C (stereo unspecified) | 25.9 µM [falling, single point] | 29.1 µM [rising, single point] |
| O=C(O)c1ccc(NC(=S)Nc2ccccc2)cc1 | 25.9 µM [falling, single point] | – |
| Cc1ccc(OCCNC(=O)c2ccc(NC(=O)CC3SC(N4CCCC4)=NC3=O)cc2)cc1 (stereo unspecified) | 29.1 µM [falling, single point] | – |
| CCOc1ccccc1N1CCN(C(=O)c2ccc3[nH]c(C)c(C)c3c2)CC1 | 0.0891 µM [falling, full curve, poor fit] | – |
| Cc1ccccc1Nc1nc(N)nc(CSCc2c(C)noc2C)n1 | 2.59 µM [rising, partial curve, poor fit] | – |
| Nc1nnc(SCCOc2ccc(Br)cc2)s1 | 0.58 µM [rising, partial curve, poor fit] | – |
| CCOC(=O)C1=C(CSc2nccn2C)NC(=O)NC1c1ccc(OC)cc1 (stereo unspecified) | 1.64 µM [rising, partial curve, poor fit] | – |
| O=C(/C=C/c1ccc(O)cc1)c1ccc(O)cc1O | 1.16 µM [falling, full curve] | 7.31 µM [falling, partial curve] |
| Cc1ccc(/C=N/NC(=O)c2cccs2)o1 | 9.2 µM [falling, partial curve] | – |
| Cc1nnc(SCc2ccccc2Cl)n(N)c1=O | 0.794 µM [falling, full curve, poor fit] | – |
| CCOCCCNC(=O)C1(O)c2cc(Br)ccc2NC(=O)N1c1cccc(OC)c1 (stereo unspecified) | 20 µM [rising, partial curve, poor fit] | – |
| Cc1ccnc2nc(C(=O)Nc3nc4ccccc4s3)nn12 | 6.31 µM [falling, full curve, poor fit] | – |
| Cc1nn(-c2ccccc2)nc1C(=O)Nc1ccc2c(c1)OCCO2 | 15.8 µM [falling, single point] | – |

Part of the list above in order of length of the SMILES, ascending.

| SMILES | AC50 [1] | AC50 [2] |
| --- | --- | --- |
| Nc1nnc(SCCOc2ccc(Br)cc2)s1 | 0.58 µM [rising, partial curve, poor fit] | – |
| CCOC(=O)C1=C(CSc2nccn2C)NC(=O)NC1c1ccc(OC)cc1 (stereo unspecified) | 1.64 µM [rising, partial curve, poor fit] | – |
| CC(/C=C1\SC(=S)N(CC(=O)N2CCN(c3ccccc3)CC2)C1=O)=C\c1ccccc1 | 0.92 µM [rising, full curve, poor fit] | – |

Further results follow:

| SMILES | AC50 [1] | AC50 [2] |
| --- | --- | --- |
| O=c1ccc(NS(=O)(=O)c2ccc(Cl)cc2)cn1Cc1ccc(Cl)c(Cl)c1 | 22.4 µM [falling, single point] | – |
| COC(=O)CC(c1ccccc1F)N1Cc2ccccc2C1=O (stereo unspecified) | 0.0891 µM [rising, full curve, poor fit] | – |
| Cc1cccc(CCNC(=O)C2CCN(S(=O)(=O)c3cccc4cccnc34)CC2)c1 | 35.5 µM [rising, single point] | – |
| CN(C(=O)c1ccc(Br)o1)C1CCCCC1 | 7.94 µM [rising, partial curve, poor fit] | – |
| CCC(=O)N1CC2(CC(c3cccc(NC(=O)CC(c4ccccc4)c4ccccc4)c3)=NO2)C[C@H]1C(N)=O (stereo partly specified) | 8.91 µM [falling, partial curve, poor fit] | – |
| COc1cccc(Oc2ccc(N)cn2)c1 | 32.6 µM [rising, single point] | – |
| CCOC(=O)c1cc(CC)sc1NC(=O)c1cccc(N2C(=O)CCC2=O)c1 | 18.4 µM [falling, single point] | – |
| COc1cc2c(cc1OC)CN(C(=O)C1(c3ccccc3)CC1)CC2 | 35.5 µM [rising, single point] | – |
| O=C(NCc1cccs1)C1CCN(c2ccc(S(=O)(=O)N3CCOCC3)cc2Cl)CC1 | 10 µM [rising, partial curve, poor fit] | 20 µM [falling, single point] |
| CC(C)[C@H](NC(=O)c1ccccc1F)C(=O)OCC(=O)NC(=O)NC1CCCCC1 | 20.6 µM [falling, single point] | 5.8 µM [rising, partial curve, poor fit] |
| CCOc1cccc(C(=O)N/N=C/c2coc3ccccc3c2=O)c1 | 1.26 µM [falling, partial curve, poor fit] | – |
| CC(=C/C(=O)O)/C(=C/c1ccccc1)C(=O)O | 14.6 µM [rising, partial curve] | – |
| S=C(Nc1ccc(Oc2ccccc2)cc1)N1CCN(c2ccccn2)CC1 | 0.112 µM [rising, full curve, poor fit] | 35.5 µM [rising, partial curve, poor fit] |
| Cc1ccc(C)c(S(=O)(=O)N2CCN(C(=O)C3CCN(c4ncnc5sc(C)c(C)c45)CC3)CC2)c1 | 32.6 µM [falling, single point] | – |
| O=C(CSc1ncnc2c1nnn2Cc1ccc(F)cc1)NCC1CCCO1 (stereo unspecified) | 3.55 µM [falling, partial curve, poor fit] | – |
| COc1cc(-c2nc3oc4ccccc4c(=O)c3c(=O)n2Cc2ccco2)cc(OC)c1OC | 4.47 µM [falling, full curve] | – |
| CC1(C)CC(=O)c2cnc(N3CCN(c4ccccc4)CC3)nc2C1 | 11.2 µM [rising, partial curve] | – |
| O=C(Cn1cnc2c(cnn2-c2ccccc2)c1=O)Nc1ccc(S(=O)(=O)N2CCOCC2)cc1 | 18.4 µM [falling, single point] | – |
| COCCn1c(-c2cccc([N+](=O)[O-])c2)nc2c1c(=O)[nH]c(=O)n2Cc1ccccc1 | – | 23.1 µM [falling, partial curve, poor fit] |
| O=C(CSc1ccc2nnc(-c3ccc(Cl)cc3)n2n1)N1CCCc2ccccc21 | 4.61 µM [rising, full curve, poor fit] | – |

| SMILES | AC50 [1] | AC50 [2] |
| --- | --- | --- |
| CCSc1nnc(NC(=O)c2cc3c(s2)CCCC3)s1 | 0.447 µM [rising, full curve, poor fit] | – |
| COc1cccc2c1C(=O)c1c(O)c3c(c(O)c1C2=O)C[C@@](O)(C(C)=O)C[C@@H]3O[C@H]1C[C@H](N)[C@H](O)[C@H](C)O1 | 2.06 µM [falling, full curve] | – |
| Cn1c2ccccc2c2c(C(=O)NCc3ccco3)cn(C3CCCCC3)c(=O)c21 | 14.6 µM [falling, partial curve, poor fit] | 1.3 µM [rising, full curve, poor fit] |
| CCC(=O)Nc1ccc(/C=C(\C(C)=O)C(=O)c2ccccc2)cc1 | 35.5 µM [falling, single point] | – |
| O=C(c1cccs1)N1CCC(c2ccccc2)C1 (stereo unspecified) | 16.4 µM [falling, single point] | – |
| CCOc1ccc(-c2cnc(SCC(N)=O)nc2N)cc1 | 6.51 µM [falling, partial curve, poor fit] | – |
| O=C(O)c1ccc(-c2ccc(/C=C3\NC(=O)N(Cc4ccc(Cl)cc4)C3=O)o2)cc1 | 12.6 µM [falling, partial curve, poor fit] | – |
| CNC(=O)c1cc(Oc2ccc(NC(=O)Nc3ccc(Cl)c(C(F)(F)F)c3)cc2)ccn1 | 10.3 µM [falling, partial curve] | 2.31 µM [rising, partial curve, poor fit] |
| CC(C)(C)NC(=O)CSc1nc(O)cc(=O)[nH]1 | 14.6 µM [rising, partial curve, poor fit] | – |
| O=C(NC1CCN(C(=O)Nc2cccc(Cl)c2)CC1)C1CCCCC1 | 11.2 µM [rising, partial curve, poor fit] | – |
| FC(F)(F)c1nc2ccccc2nc1N/N=C\c1ccccc1 | 35.5 µM [rising, partial curve, poor fit] | – |
| COc1cc(C=C(C(C)=O)C(C)=O)ccc1O | 29.1 µM [falling, single point] | – |
| COc1ccc(N2C(=O)C(C)(C)C2c2c(O)ccc3ccccc23)cc1 (stereo unspecified) | 7.94 µM [falling, partial curve] | – |
| COc1cccc(-c2cc(-c3cccnc3)nc(N)c2C#N)c1 | 0.398 µM [falling, full curve] | – |
| COc1ccc(C(=O)NCc2cccnc2)cc1S(=O)(=O)N1CCOCC1 | 29.1 µM [rising, single point] | – |
| C=CCC[C@@H](Cc1ccc(F)cc1)C(=O)OC[C@@H]1CCCN1C(=O)[C@H](CC=C)CC(=O)N[C@H](CO)Cc1ccccc1 | 29.1 µM [falling, single point] | – |
| CCS(=O)(=O)N1Cc2ccccc2CC1C(=O)Nc1nc(C)cs1 (stereo unspecified) | 0.447 µM [rising, full curve, poor fit] | – |
| Cc1ccc(CNC(=O)Cc2noc3ccccc23)cc1 | 11.2 µM [falling, partial curve] | – |
| CCN1CCCC1CNc1ncnc2c1[nH]c1ccc(Cl)cc12 (stereo unspecified) | 31.6 µM [falling, single point] | – |
